Data as given in PubChem BioAssay AID504774 (Drosophila RNAi Screening Center, 2011).
The screen tested about 23,000 reagents; this is a random part of those with a known target gene and a result. 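Values are quantile-normalised luminescence on an arbitrary scale; higher means more cells surviving MMS.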 A plus sign joins genes that one reagent is predicted to hit. Not all columns of the deposit are shown.

- Assay: 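Genes required for cells to withstand methyl methanesulphonate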 (primary screen)
- Cell system: Drosophila Kc167 cells
- Reagent: long dsRNA against Drosophila genes, about 0.25 µg dsRNA per well
- Timing: about 6 days: 3 days knock-down, then 3 days with or without MMS
- Challenge: methyl methanesulphonate 0.004% (w/v) for 3 days after knock-down
- Read-out: 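Viability in wells given MMS, read as ATP luminescence, normalised by quantiles plate by plate and averaged across replicates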
- Scale: mean viability with MMS: higher = more surviving cells after MMS

gene	amplicon	mean viability with MMS
CG5708	DRSC02881	3.57e6
CG14546	DRSC14890	3.60e6
CG12155	DRSC17826	3.45e6
CG12155	DRSC23294	3.78e6
CG13239	DRSC11694	3.53e6
CG31949	DRSC00110	3.64e6
dbf (doublefault)	DRSC02570	3.27e6
CG7991	DRSC08609	3.63e6
Raf (Raf oncogene)	DRSC18821	3.35e6
Raf (Raf oncogene)	DRSC23311	3.71e6
Eaat2 (Excitatory amino acid transporter 2)	DRSC00032	3.83e6
Eaat2 (Excitatory amino acid transporter 2)	DRSC00749	3.73e6
Cdc5 (Cell division cycle 5)	DRSC08577	3.06e6
CG14840	DRSC14964	3.51e6
CG18132	DRSC00518	3.49e6
CG13760	DRSC18617	3.49e6
CG9920	DRSC16578	3.80e6
Gpo2 (Glycerophosphate oxidase 2)	DRSC06822	3.61e6
Csk (C-terminal Src kinase)	DRSC12861	3.61e6
Csk (C-terminal Src kinase)	DRSC15223	3.34e6
Csk (C-terminal Src kinase)	DRSC23272	3.61e6
CG31997	DRSC17105	3.60e6
CG33639	DRSC19966	3.59e6
CG33639	DRSC22820	3.36e6
CG31268	DRSC13203	3.39e6
CG4914	DRSC10458	3.73e6
CG33017	DRSC06573	3.43e6
CG33017	DRSC06574	3.66e6
grk (gurken)	DRSC03540	3.44e6
Sxl + CG14425 (retired record)	DRSC18721	3.44e6
Sxl + CG14425 (retired record)	DRSC18722	3.58e6
Sxl + CG14425 (retired record)	DRSC21490	3.30e6
CG18335	DRSC06723	3.51e6
LeuRS (Leucyl-tRNA synthetase)	DRSC00581	3.31e6
CG15729 (retired record)	DRSC19695	3.48e6
Cyp4e2 (Cytochrome P450 4e2)	DRSC07371	3.58e6
CG11836	DRSC14396	3.46e6
RtcB (RtcB RNA ligase)	DRSC03280	3.57e6
CG8837	DRSC00711	3.63e6
CG17122	DRSC10245	3.66e6
CG30203	DRSC06690	3.50e6
CG7884	DRSC20065	3.76e6
CG15742	DRSC19708	3.43e6
Obp56h (Odorant-binding protein 56h)	DRSC06433	3.39e6
CG31798	DRSC01702	3.56e6
CG6933	DRSC10751	3.58e6

Quoted from the listing (6 entries):
gene	amplicon	mean viability with MMS
CG31997	DRSC17105	3.60e6
CG33639	DRSC19966	3.59e6
CG33639	DRSC22820	3.36e6
CG31268	DRSC13203	3.39e6
CG4914	DRSC10458	3.73e6
CG33017	DRSC06573	3.43e6
